According to PubChem BioAssay AID2685 (National Center for Advancing Translational Sciences (NCATS), 2010):
About 2,100 (0.66%) of roughly 320,000 compounds were called active. Inconclusive results, whose numbers are uncertain, are shown with a selection of clear calls. Calls follow the shape of the dose curve; as a rule, active = well fitted inhibition curve with a large enough effect in the signal ratio, with a control signal flat (not every such curve was filed as active); inconclusive = small, poorly fitted or top-dose-only effect, or effect the other way, or a change in a side signal; inactive = flat fitted curve, though single readings scatter; the % refers to the signal ratio. A potency beside an inconclusive call is a rough fit, not a confirmed value.

Experiment: qHTS Assay for Lipid Storage Modulators in Drosophila S3 Cells
Settings: BODIPY lipid droplet fluorescence, 18-24 h, cells fed with added oleic acid; lipid storage change, negative = inhibition: at 46.1 µM (top of the series) unless noted
Summary of the method: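 Drosophila S3 cells loaded with oleic acid (400 uM, as added) and compounds at several concentrations; lipid droplets imaged by 488-nm laser-scanning cytometry, 500–530 nm intensity and object ratio to cell channel. Percent activity normalized to 20 uM Triacsin C.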
% is scaled to controls: 0 for no effect and ±100 for the full control effect; potency is read from the fitted curve at half-maximal effect.

Lipid storage change, negative = inhibition, inactive:
CC(C)N(C)CCOC(=O)c1ccc2c(c1)OCCO2 4.51%, Cc1ccc(NC(=O)c2cc(S(=O)(=O)NCCC3=CCCCC3)ccc2F)cc1 -15.8%

Lipid storage change, negative = inhibition, inconclusive:
COc1ccc(C(=O)Nc2ccc(N3CCN(C)CC3)cc2)cc1OC 24.8%, COc1cc([N+](=O)[O-])ccc1NC(=O)CCCOc1ccccc1 397%, CCCCn1c(N)c(N(Cc2ccccc2OC)C(=O)CN2C(=O)NC3(CCCC3)C2=O)c(=O)[nH]c1=O -6.25%, Cc1ccc(-n2ncc3c(Nc4c(C)n(C)n(-c5ccccc5)c4=O)ncnc32)c(C)c1 19%, O=C(OCC(=O)c1ccc[nH]1)c1ccc(Cl)nc1 2.66%, CCc1ccc(NC(=O)CN(CC(=O)Nc2ccc(CC)cc2)CC(C)O)cc1 (stereo unspecified) -54.2%, COC(=O)[C@@]1(Cc2ccc(OC)cc2)[C@H]2c3cc(C(=O)N(C)C)n(CCSCCO)c3C[C@H]2CN1C(=O)c1ccccc1 14.1%, O=C1CCN(Cc2ccccc2)S(=O)(=O)c2ccc(C(F)(F)F)cc21 23%, O=P1(O)C=C(c2ccccc2)OC(c2ccccc2)=C1 -103%, COc1ccc(NC(=O)CN(C)C(=O)c2ccc(N3CCCCCC3)c([N+](=O)[O-])c2)cc1, Cc1ccc(C(=O)n2nc(-c3ccccc3)nc2NCc2ccco2)cc1 318%, COC(=O)c1cc(S(=O)(=O)N2c3ccccc3CC2C)cn1C (stereo unspecified) -33.6%, COc1cccc(-c2nc(CS(=O)CC(=O)NCCc3ccccc3)c(C)o2)c1 (stereo unspecified) -50.3%

Potency, inconclusive:
COc1ccccc1N(C(=O)c1csnn1)C(C(=O)NC1CCCC1)c1ccccc1 (stereo unspecified) 0.13 µM [falling, full curve, poor fit], Cc1cccc(CC(=O)NCCN2CCCCC2)c1 6.51 µM [activator, single point], Cc1ccc(S(=O)(=O)N2[C@@H](c3ccc(Cl)cc3)C(C(=O)O)=CC[C@H]2c2cccs2)cc1 4.11 µM [activator, full curve], O=C(NCCOc1ccc(Cl)cc1)C1CC(=O)N(c2ccc(F)cc2)C1 (stereo unspecified) 0.58 µM [activator, single point], O=C(Nn1cnnc1)c1ccc(F)c(S(=O)(=O)N2CCCCC2)c1 2.31 µM [falling, partial curve, poor fit], Fc1ccc(CSc2nnc(-c3cccnc3)o2)cc1 0.731 µM [falling, full curve]
